Test results published in the supplement of paper PMC11006884.
What follows is the remainder of the data, with few or none of the targets with a hit. This is a noisy data set. This is a selection; strong and weak results do not stand in their true shares.

Amino acid sequences for entries named in this document (tags omitted). A change or cut given only in a name is not applied to a line headed by its entry.
UniProt Q66PJ3: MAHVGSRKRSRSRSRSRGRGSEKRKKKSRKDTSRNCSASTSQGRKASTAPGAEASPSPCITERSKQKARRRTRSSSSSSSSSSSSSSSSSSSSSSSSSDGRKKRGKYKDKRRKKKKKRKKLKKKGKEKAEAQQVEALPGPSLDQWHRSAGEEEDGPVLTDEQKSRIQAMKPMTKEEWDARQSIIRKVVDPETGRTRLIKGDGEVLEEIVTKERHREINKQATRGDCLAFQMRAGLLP
UniProt Q6P1X6: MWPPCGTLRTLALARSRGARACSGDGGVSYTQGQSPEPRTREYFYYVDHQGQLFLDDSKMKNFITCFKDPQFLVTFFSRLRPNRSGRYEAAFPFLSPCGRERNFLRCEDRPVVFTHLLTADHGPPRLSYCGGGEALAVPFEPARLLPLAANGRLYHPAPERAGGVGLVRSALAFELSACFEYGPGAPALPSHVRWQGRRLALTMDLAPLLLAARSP
UniProt Q6NXT1: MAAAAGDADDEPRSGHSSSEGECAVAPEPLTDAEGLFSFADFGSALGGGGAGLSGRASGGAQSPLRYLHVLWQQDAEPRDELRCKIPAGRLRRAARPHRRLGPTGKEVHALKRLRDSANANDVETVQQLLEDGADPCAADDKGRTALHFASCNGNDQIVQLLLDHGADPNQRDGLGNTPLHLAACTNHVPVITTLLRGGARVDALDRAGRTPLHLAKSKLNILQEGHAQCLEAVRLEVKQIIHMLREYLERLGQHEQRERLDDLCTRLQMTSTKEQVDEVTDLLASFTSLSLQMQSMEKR
UniProt Q63HN8: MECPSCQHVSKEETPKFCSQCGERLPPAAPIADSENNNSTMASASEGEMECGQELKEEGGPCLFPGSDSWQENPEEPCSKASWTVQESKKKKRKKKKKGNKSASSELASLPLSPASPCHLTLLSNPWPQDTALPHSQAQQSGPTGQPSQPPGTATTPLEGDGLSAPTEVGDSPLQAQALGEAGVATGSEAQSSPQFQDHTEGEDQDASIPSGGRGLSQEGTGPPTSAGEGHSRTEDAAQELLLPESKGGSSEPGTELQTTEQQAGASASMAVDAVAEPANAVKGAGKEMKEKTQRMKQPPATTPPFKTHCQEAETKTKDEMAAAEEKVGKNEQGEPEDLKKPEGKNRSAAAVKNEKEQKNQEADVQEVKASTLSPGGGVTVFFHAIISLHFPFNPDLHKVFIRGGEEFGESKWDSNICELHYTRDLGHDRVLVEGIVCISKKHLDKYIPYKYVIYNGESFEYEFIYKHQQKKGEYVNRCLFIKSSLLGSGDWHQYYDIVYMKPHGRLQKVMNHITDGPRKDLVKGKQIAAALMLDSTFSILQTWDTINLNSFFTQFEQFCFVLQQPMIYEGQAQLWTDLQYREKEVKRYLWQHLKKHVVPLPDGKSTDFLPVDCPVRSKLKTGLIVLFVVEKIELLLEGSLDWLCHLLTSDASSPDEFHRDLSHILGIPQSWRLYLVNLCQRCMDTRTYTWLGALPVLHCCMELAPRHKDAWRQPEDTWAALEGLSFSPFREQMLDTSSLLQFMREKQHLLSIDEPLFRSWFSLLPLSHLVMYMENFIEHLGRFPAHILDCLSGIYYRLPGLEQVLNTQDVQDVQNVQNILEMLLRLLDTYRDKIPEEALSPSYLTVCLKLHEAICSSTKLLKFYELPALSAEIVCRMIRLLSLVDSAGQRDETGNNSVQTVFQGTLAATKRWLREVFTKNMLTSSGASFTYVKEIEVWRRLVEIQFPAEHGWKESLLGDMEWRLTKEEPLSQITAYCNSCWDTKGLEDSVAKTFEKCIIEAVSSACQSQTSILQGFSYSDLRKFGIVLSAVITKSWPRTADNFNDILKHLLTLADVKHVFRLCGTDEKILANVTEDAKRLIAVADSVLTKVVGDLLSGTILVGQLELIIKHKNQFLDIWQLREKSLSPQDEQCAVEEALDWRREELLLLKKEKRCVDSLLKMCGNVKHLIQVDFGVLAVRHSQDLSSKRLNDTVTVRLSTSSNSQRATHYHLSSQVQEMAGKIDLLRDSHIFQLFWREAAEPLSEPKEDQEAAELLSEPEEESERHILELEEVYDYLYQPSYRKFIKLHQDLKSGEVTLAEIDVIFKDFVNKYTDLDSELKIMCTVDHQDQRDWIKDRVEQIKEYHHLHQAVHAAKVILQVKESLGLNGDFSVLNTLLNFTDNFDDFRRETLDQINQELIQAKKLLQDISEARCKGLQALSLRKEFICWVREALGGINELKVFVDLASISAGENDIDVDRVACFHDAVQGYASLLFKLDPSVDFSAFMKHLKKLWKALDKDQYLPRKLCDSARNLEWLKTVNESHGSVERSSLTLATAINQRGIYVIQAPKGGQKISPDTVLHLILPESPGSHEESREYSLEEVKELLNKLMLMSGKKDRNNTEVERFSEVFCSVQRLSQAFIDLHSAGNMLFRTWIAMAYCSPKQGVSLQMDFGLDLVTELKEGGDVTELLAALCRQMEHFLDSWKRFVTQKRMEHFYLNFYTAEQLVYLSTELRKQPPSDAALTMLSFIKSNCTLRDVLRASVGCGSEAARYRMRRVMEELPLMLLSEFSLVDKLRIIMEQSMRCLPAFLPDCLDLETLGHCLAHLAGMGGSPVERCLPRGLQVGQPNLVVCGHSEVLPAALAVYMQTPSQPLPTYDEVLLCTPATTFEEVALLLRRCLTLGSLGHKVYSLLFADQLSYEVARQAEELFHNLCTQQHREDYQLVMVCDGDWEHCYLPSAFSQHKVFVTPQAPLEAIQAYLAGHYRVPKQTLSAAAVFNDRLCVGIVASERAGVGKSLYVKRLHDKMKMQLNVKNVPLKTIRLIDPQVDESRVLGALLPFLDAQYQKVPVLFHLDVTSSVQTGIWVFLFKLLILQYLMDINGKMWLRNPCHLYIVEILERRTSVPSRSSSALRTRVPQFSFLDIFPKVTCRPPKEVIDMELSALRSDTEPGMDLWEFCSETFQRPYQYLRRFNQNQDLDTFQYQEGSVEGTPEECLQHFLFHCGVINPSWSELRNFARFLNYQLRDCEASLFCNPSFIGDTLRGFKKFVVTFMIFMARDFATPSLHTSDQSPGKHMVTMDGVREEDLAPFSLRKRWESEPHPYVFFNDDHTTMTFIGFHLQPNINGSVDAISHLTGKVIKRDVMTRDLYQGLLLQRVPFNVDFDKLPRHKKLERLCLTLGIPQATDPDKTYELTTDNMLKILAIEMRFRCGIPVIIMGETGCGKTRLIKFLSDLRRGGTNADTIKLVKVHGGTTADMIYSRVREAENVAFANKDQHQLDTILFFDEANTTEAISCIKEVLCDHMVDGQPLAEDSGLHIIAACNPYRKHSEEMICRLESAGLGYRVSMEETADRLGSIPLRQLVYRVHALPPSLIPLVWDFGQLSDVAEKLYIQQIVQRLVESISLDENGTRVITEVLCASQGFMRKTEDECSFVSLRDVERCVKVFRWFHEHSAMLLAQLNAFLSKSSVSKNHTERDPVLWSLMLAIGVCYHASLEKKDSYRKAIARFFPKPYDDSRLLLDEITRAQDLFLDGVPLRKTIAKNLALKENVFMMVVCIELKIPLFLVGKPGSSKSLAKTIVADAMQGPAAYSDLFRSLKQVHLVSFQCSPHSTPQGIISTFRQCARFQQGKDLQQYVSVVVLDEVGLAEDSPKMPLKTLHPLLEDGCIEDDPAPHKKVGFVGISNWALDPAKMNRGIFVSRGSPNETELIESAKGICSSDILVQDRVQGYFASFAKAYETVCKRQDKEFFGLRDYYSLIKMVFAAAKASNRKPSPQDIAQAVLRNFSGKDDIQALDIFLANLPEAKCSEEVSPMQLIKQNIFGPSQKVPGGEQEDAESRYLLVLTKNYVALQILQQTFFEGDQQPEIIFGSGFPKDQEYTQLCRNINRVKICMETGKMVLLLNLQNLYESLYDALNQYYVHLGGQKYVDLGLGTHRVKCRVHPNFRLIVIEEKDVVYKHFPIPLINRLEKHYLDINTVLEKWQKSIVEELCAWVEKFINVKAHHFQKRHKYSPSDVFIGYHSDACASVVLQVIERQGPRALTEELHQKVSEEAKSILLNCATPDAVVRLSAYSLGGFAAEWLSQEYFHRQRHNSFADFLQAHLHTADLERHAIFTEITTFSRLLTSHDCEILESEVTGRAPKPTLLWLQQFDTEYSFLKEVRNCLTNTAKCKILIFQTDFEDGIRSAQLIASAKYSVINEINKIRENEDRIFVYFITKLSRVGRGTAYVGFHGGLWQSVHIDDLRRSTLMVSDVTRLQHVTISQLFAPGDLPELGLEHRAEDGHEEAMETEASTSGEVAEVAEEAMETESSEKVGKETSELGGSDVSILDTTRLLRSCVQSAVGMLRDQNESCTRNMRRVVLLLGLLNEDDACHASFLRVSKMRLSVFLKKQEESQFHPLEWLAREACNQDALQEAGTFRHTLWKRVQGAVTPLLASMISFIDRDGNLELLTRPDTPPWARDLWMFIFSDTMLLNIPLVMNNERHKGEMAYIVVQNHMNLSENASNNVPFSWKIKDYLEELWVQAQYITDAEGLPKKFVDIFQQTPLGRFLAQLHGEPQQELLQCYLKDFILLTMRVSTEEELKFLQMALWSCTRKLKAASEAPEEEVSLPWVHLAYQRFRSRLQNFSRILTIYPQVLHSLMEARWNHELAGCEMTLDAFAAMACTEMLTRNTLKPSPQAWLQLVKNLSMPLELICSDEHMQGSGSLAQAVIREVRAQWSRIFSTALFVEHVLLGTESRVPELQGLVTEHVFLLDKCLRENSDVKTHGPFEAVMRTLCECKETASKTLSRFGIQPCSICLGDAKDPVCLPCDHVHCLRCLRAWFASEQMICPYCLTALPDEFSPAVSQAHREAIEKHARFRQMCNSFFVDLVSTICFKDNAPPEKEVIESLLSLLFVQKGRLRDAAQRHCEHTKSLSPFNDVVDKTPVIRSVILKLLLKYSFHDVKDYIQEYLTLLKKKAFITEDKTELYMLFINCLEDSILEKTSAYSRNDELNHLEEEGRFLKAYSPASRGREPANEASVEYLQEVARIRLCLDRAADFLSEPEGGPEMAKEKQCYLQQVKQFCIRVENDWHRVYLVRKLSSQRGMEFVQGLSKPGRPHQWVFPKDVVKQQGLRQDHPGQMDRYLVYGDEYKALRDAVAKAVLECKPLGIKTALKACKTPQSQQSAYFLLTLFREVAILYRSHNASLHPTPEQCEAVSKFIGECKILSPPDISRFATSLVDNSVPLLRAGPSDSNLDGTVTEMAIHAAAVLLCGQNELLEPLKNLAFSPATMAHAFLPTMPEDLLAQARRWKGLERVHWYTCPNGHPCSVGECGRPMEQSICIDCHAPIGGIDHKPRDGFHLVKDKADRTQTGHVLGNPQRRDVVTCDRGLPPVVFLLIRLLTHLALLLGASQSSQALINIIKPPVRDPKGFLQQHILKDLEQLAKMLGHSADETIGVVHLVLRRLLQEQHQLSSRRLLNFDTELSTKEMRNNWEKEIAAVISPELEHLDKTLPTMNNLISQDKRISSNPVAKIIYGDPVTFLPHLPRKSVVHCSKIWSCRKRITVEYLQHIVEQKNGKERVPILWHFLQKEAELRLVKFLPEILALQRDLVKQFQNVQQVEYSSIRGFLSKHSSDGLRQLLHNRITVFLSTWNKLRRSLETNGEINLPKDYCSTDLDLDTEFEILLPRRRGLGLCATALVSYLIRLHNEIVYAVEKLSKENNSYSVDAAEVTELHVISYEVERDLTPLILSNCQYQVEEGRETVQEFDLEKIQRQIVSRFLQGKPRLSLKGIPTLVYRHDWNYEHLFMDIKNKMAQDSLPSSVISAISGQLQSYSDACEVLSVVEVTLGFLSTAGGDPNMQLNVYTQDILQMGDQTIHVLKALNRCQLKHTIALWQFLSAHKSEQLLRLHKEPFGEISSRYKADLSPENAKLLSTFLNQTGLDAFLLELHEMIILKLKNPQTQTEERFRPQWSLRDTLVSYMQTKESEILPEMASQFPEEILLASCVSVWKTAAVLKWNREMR
UniProt Q5BKX5: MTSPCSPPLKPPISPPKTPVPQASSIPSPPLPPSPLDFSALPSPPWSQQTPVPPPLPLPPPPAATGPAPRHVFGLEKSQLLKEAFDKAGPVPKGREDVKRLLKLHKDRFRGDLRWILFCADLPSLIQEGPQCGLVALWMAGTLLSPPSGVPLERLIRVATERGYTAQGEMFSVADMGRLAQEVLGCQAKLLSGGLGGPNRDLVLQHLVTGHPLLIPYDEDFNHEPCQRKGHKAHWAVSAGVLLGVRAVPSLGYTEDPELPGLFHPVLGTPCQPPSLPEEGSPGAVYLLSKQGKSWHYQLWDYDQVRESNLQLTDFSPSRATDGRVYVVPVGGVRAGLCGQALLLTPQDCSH

Compound: COC(=O)/C=C/c1ccccc1 [methyl cinnamate]
Test: log2 ratio of iodoacetamide-alkyne labeling of the cysteine site, DMSO over compound (competition); higher = stronger covalent engagement of the cysteine by the compound, active = 1 or more
Conditions: 500 µM; treatment time 1 h; system: HEK293T cell lysate
Method in brief: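 Reporter intensities give each cysteine's log2 competition ratio as the mean of control channels over the mean of compound channels. The samples were HEK293T lysate (2 mg/mL) given vehicle or electrophile (500 µM, 1 h, ambient temperature), then iodoacetamide alkyne (1 h), followed by click coupling to sCIP-TMT reagents, pooling, trypsin digestion overnight at 37 °C, streptavidin enrichment, acid elution, Orbitrap Eclipse LC-MS/MS with FAIMS and FragPipe quantification. Duplicate channels and three replicates were run, and cysteines quantified in only one replicate were discarded.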

log2 ratio of iodoacetamide-alkyne labeling, inactive:
BCORL1 C139 (UniProt Q5H9F3) 0.179
UniProt Q5FWF4_C811 0.126
HSDL2 C218 (UniProt Q6YN16) 0.0777
ARID2 C1319 (UniProt Q68CP9) 0.173
EDC4 C4 (UniProt Q6P2E9) 0.023
FNBP1L C69 (UniProt Q5T0N5) -0.183
ARL6IP4 C220 (UniProt Q66PJ3) 0.368
C8orf82 C98 (UniProt Q6P1X6) 0.167
ANKRD54 C185 (UniProt Q6NXT1) -0.0655
ZNF318 C349 (UniProt Q5VUA4) -0.149
UniProt Q63HN8_C3008 0.304
CC2D1A C252 (UniProt Q6P1N0) 0.0676
C19orf54 C271 (UniProt Q5BKX5) -0.371
MTHFD1L C961 (UniProt Q6UB35) 0.165
RRP12 C31 (UniProt Q5JTH9) 0.182
DENND4C C1105 (UniProt Q5VZ89) 0.128

Nothing new here: entries from further up.
log2 ratio of iodoacetamide-alkyne labeling, inactive:
RRP12 C31 (UniProt Q5JTH9) 0.182
DENND4C C1105 (UniProt Q5VZ89) 0.128
